Laboratory results as given in PMC6433719.

Legend:
[1] = target: T1, AtSnRK2.6 cloned in pGBKT7 (Arabidopsis thaliana) (UniProt Q940H6); test: two-hybrid; PP2C fused to the GAL4 AD (prey), SnRK2 in pGBKT7 (bait), yeast AH109; growth on selective media -W/-L/-H/-A, 3 days at 30°C; ABA not mentioned for these panels (Figure 5D-F)
T1 sequence: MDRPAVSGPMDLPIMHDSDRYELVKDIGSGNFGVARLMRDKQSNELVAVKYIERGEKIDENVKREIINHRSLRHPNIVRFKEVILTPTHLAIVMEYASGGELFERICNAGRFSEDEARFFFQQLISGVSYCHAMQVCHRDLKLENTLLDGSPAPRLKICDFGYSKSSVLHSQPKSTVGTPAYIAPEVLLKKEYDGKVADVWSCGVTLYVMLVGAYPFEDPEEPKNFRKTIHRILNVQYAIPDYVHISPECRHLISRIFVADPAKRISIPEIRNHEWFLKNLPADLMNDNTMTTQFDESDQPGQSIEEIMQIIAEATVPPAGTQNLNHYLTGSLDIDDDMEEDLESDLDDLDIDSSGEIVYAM

[2] = target: T2, AtPYL11 in pBDGAL4 (Arabidopsis thaliana) (UniProt Q9FJ50); test: two-hybrid; PP2C fused to the GAL4 AD (prey), PYL fused to the GAL4 BD (bait), yeast AH109; growth on -W/-L/-H/-A with 50 μM ABA, 3 days at 30°C
T2 sequence: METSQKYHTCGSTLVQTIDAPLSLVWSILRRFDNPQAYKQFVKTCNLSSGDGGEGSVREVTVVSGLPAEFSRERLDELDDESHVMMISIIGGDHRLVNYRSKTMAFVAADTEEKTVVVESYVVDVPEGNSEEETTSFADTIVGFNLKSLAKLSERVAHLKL

[3] = target: T3, AtPYL12 in pBDGAL4 (Arabidopsis thaliana) (UniProt Q9FJ49); test: as above
T3 sequence: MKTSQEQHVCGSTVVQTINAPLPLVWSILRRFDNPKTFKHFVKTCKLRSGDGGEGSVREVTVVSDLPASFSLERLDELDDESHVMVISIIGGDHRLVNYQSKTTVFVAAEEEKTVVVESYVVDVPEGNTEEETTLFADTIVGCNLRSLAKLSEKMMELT

[4] = target: T4, AtPYL8 in pBDGAL4 (Arabidopsis thaliana) (UniProt Q9FGM1); test: as above
T4 sequence: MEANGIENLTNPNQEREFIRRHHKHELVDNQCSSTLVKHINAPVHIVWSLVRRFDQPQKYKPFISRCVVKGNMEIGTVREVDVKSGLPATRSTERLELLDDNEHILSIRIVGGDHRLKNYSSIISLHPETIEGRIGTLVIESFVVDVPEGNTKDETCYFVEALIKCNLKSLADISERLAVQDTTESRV

[5] = target: T5, AtPYL6 in pBDGAL4 (Arabidopsis thaliana) (UniProt Q8S8E3); test: as above
T5 sequence: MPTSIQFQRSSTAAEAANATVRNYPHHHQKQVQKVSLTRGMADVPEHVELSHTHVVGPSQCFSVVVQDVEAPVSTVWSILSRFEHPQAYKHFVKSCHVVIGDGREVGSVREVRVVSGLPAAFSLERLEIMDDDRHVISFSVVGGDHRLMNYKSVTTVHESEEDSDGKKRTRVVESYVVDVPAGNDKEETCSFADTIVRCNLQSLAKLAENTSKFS

[6] = target: T6, AtPYL13 in pBDGAL4 (Arabidopsis thaliana) (UniProt Q9SN51); test: as above
T6 sequence: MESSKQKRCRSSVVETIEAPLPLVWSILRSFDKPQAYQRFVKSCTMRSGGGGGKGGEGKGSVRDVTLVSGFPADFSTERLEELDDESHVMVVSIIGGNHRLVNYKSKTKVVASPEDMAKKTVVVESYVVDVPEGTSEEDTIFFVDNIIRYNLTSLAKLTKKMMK

[7] = target: T7, AtPYL9 in pBDGAL4 (Arabidopsis thaliana) (UniProt Q84MC7); test: as above
T7 sequence: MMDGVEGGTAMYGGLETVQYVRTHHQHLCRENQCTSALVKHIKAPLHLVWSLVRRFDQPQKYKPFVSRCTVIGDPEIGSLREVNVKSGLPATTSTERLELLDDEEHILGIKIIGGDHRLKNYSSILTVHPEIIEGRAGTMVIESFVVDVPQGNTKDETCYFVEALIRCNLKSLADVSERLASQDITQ

[8] = target: T8, AtPYL7 in pBDGAL4 (Arabidopsis thaliana) (UniProt Q1ECF1); test: as above
T8 sequence: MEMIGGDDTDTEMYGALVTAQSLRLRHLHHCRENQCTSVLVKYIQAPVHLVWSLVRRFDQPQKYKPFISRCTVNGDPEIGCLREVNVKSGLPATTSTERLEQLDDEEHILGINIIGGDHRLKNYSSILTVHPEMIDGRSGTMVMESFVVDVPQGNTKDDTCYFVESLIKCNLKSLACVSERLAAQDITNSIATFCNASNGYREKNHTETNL

[9] = target: T2, AtPYL11 in pBDGAL4 (Arabidopsis thaliana); test: two-hybrid; PP2C fused to the GAL4 AD (prey), PYL fused to the GAL4 BD (bait), yeast AH109; growth on -W/-L/-H/-A without ABA, 3 days at 30°C
[10] = target: T3, AtPYL12 in pBDGAL4 (Arabidopsis thaliana); test: as above
[11] = target: T4, AtPYL8 in pBDGAL4 (Arabidopsis thaliana); test: as above
[12] = target: T5, AtPYL6 in pBDGAL4 (Arabidopsis thaliana); test: as above
[13] = target: T6, AtPYL13 in pBDGAL4 (Arabidopsis thaliana); test: as above
[14] = target: T7, AtPYL9 in pBDGAL4 (Arabidopsis thaliana); test: as above
[15] = target: T8, AtPYL7 in pBDGAL4 (Arabidopsis thaliana); test: as above

Measured: binding

CaHAI fused to the GAL4 activation domain (Capsicum annuum) (enzyme)
binds weakly: [9] | [12]
binds: [1] | [2] | [3] | [4] | [5] | [6] | [7] | [8] | [10] | [11] | [13] | [14] | [15]

Results are given in words; binding and its absence hold for the method and conditions named. Binding calls can cover weak binding; strength is not graded here.
